± gives the standard deviation of the averaged measurements. This is one part of the list.
Compound: Nc1nc2c(ncn2[C@@H]2O[C@H](COP(=O)(O)OP(=O)(O)OP(=O)(O)O)[C@@H](O)[C@H]2O)c(=O)[nH]1 [guanosine triphosphate]
Assay: NP40-soluble protein abundance relative to vehicle (solubility fold change) (ratio); higher = more soluble protein in presence of GTP
In short: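 Values are fold changes against the detergent-processed vehicle, based on vsn-normalised intensities. Jurkat crude lysate was treated at eight concentrations from 0.1 to 10 mM (10 min at room temperature, then 3 min at 37 °C), solubilised with 0.8% NP40 and benzonase, ultracentrifuged and analysed by TMT-labelled LC-MS/MS over three independent experiments.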

Sequences of proteins named here, by UniProt entry; tags and fusion partners are left off. A change or cut given only in a name is not applied to a line headed by its entry.
UniProt Q6PH81: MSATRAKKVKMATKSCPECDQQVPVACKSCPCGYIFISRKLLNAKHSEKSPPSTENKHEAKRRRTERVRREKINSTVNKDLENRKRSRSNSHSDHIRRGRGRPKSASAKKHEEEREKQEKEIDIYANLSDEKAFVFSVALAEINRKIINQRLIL
UniProt Q6P4E1: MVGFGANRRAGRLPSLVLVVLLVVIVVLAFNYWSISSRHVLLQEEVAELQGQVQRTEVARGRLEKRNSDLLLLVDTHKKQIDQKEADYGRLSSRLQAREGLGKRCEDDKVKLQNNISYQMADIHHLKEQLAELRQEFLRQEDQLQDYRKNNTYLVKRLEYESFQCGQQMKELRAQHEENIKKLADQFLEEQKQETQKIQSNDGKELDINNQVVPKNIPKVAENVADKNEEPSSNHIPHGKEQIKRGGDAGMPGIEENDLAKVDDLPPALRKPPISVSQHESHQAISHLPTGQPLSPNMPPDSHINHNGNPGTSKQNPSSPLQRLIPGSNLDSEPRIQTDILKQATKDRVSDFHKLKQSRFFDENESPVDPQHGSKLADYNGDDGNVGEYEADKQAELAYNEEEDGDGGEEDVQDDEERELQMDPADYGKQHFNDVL
UniProt Q9Y296, whole entry: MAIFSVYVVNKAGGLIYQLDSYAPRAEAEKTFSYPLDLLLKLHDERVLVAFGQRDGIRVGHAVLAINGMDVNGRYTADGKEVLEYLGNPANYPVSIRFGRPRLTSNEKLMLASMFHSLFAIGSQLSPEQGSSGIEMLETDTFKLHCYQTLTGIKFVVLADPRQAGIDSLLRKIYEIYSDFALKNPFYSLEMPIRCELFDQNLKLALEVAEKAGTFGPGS
UniProt Q6UW68: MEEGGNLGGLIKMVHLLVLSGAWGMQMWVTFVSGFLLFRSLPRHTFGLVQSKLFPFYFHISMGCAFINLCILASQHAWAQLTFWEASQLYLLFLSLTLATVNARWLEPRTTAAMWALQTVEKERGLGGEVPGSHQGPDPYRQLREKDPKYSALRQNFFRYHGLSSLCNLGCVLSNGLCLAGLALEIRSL
UniProt Q96GQ5: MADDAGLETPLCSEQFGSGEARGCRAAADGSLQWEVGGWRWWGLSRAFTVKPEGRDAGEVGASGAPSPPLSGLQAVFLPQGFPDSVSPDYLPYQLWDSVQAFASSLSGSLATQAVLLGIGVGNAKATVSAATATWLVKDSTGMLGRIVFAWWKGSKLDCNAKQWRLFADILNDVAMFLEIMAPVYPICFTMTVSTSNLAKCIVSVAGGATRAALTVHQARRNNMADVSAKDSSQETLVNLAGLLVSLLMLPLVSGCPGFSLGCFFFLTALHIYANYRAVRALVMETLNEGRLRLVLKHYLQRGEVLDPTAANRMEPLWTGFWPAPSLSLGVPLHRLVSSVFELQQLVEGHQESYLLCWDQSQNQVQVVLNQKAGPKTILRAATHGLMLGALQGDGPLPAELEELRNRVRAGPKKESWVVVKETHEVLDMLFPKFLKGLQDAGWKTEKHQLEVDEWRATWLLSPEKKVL
UniProt Q9BRQ6: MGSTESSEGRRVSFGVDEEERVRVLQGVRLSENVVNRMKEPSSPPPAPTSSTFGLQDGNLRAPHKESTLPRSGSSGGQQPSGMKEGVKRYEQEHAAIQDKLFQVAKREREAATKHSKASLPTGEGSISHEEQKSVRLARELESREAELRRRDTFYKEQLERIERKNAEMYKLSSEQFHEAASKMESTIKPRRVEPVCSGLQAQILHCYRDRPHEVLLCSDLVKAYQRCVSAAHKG
UniProt Q9NVR2, whole entry: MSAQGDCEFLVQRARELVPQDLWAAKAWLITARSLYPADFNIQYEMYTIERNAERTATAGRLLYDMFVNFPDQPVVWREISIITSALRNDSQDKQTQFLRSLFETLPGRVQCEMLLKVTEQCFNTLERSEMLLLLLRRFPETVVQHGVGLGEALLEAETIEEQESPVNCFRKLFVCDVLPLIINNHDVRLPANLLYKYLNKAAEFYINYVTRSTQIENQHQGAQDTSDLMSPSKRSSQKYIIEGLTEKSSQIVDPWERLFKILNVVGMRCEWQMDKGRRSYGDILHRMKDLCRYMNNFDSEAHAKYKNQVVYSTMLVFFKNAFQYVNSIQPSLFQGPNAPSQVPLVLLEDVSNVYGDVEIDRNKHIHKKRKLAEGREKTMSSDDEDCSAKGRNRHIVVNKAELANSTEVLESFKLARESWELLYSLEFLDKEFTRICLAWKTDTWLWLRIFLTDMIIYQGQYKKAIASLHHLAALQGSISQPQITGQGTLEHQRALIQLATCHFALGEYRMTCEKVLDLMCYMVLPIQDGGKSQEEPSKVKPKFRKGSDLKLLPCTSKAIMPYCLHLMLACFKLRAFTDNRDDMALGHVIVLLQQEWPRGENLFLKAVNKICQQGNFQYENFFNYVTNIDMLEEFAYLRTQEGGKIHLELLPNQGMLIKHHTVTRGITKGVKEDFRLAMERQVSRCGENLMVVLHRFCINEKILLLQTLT
UniProt O95067, whole entry, looked up: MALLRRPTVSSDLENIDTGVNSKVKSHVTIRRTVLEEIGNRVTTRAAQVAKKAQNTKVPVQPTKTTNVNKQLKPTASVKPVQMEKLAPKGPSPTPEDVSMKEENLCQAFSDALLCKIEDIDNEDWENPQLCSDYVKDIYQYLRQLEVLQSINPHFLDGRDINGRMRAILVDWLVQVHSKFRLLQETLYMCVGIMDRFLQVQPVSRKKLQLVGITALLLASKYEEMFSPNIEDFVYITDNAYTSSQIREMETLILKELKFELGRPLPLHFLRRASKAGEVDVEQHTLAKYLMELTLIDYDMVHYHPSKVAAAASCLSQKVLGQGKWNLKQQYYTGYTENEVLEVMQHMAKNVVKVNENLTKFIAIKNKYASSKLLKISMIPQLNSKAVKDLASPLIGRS
UniProt Q02978: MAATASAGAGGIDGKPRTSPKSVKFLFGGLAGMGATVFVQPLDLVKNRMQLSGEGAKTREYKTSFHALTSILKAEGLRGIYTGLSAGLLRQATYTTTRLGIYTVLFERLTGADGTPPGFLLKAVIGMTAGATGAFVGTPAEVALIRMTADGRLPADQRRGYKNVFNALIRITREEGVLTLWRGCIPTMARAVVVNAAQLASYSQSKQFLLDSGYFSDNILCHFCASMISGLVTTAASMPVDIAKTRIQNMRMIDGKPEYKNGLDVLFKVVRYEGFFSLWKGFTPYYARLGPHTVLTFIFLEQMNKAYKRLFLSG
UniProt A0FGR8: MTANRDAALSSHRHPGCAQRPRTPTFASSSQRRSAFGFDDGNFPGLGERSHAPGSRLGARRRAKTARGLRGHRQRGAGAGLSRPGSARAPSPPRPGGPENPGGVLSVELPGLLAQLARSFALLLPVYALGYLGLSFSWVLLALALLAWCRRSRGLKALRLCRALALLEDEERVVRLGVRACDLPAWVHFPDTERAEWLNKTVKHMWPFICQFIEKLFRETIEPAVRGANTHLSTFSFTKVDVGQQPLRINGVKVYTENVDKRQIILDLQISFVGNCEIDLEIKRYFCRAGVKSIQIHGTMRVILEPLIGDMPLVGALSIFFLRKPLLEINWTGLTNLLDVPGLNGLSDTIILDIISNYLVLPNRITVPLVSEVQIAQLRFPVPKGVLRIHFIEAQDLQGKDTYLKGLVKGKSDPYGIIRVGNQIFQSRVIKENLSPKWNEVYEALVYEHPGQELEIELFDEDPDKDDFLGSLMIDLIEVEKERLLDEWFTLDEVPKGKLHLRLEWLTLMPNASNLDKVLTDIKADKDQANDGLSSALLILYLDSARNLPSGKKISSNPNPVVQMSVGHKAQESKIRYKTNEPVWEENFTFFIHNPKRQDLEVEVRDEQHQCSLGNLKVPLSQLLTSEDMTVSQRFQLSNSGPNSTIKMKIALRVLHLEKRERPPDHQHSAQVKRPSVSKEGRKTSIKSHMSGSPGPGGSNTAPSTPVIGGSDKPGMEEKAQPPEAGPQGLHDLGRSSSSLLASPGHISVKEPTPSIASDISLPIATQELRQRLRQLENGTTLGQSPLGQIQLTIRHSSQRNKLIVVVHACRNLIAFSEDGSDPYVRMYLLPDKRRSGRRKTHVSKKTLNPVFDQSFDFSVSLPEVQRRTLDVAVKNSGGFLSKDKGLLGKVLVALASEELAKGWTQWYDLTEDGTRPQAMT
UniProt Q92918, whole entry, looked up: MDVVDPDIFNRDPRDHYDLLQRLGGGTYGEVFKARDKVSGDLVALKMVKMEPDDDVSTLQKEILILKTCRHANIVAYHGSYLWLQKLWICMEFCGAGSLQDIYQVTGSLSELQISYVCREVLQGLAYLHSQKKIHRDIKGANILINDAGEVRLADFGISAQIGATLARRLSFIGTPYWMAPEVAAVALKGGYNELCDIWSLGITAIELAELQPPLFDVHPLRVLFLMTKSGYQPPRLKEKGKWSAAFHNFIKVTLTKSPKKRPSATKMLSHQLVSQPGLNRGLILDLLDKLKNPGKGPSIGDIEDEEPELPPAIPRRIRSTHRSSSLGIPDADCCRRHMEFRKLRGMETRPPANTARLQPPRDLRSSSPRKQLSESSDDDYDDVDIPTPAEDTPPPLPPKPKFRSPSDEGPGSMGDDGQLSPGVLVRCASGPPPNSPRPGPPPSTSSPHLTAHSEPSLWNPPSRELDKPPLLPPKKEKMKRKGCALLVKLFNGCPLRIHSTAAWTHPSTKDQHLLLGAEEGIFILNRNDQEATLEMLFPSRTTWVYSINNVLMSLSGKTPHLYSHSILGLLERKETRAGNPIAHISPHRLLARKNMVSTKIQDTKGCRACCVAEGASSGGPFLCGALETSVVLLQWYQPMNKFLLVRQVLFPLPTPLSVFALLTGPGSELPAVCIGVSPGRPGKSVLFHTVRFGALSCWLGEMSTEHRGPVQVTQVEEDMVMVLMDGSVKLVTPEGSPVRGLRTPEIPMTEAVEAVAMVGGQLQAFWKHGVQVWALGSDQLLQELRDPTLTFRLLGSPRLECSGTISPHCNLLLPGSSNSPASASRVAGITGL
UniProt Q9NVS9: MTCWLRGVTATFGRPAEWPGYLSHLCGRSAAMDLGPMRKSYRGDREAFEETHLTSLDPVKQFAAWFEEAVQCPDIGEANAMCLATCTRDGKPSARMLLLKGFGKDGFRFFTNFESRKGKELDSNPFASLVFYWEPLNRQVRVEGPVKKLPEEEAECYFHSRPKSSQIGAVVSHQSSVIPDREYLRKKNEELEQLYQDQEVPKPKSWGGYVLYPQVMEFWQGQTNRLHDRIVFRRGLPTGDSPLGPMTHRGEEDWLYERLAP
UniProt O43566: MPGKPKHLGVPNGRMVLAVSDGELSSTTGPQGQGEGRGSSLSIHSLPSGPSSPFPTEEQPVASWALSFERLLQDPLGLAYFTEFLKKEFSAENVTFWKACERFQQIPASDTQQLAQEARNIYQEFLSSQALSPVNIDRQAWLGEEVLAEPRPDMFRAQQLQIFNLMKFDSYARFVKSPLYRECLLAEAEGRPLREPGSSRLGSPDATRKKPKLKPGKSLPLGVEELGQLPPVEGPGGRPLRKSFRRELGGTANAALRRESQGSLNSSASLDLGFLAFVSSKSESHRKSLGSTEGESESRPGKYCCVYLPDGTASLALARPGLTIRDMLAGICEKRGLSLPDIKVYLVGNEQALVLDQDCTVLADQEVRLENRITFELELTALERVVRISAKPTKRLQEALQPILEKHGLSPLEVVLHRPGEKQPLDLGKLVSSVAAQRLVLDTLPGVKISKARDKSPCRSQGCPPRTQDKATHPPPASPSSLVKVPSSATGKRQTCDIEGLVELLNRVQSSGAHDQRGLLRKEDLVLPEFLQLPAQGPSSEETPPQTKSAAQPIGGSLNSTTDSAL
UniProt Q8NBJ7: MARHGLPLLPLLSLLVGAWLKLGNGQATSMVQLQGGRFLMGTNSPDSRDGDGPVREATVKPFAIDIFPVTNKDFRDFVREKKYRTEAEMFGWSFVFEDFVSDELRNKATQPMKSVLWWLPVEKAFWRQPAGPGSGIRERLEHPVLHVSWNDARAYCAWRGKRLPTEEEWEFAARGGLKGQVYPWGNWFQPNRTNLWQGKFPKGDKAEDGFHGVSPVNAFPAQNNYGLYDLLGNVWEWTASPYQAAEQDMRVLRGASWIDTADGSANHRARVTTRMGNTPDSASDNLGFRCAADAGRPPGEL
UniProt Q9P035: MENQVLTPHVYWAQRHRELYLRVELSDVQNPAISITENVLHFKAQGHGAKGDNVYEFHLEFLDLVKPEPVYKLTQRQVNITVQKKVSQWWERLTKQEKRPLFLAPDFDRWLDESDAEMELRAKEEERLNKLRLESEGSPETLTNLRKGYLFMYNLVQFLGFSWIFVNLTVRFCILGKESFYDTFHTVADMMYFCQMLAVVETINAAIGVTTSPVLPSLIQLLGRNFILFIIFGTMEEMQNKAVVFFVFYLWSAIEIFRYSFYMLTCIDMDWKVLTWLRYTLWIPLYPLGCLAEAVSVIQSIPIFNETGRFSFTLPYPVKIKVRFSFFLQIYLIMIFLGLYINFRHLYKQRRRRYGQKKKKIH

Target | NP40-soluble protein abundance (concentration: 0.1mM) | NP40-soluble protein abundance (concentration: 0.5mM) | NP40-soluble protein abundance (concentration: 1mM) | NP40-soluble protein abundance (concentration: 2mM) | NP40-soluble protein abundance (concentration: 4mM) | NP40-soluble protein abundance (concentration: 6mM) | NP40-soluble protein abundance (concentration: 8mM) | NP40-soluble protein abundance (concentration: 10mM)
K7EL60 and related entries (UniProt O75821) | 0.992 ± 0.019 | 0.99 ± 0.03 | 1.04 ± 0.063 | 1.05 ± 0.047 | 1.18 ± 0.12 | 1.3 ± 0.14 | 1.46 ± 0.25 | 1.59 ± 0.29
H3BQL3 and related entries (UniProt Q6PH81) | 0.905 ± 0.086 | 0.839 ± 0.068 | 1.13 ± 0.1 | 1.04 ± 0.034 | 1.09 ± 0.067 | 1.14 ± 0.12 | 1.15 ± 0.088 | 1.3 ± 0.1
H0YM51 and related entries (UniProt Q6P4E1) | 0.958 ± 0.2 | 0.898 ± 0.14 | 1.08 ± 0.21 | 1.01 ± 0.16 | 0.994 ± 0.2 | 0.955 ± 0.17 | 0.991 ± 0.24 | 1.16 ± 0.22
H0Y368 and related entries (UniProt O60762) | 1.4 ± 0.19 | 1.57 ± 0.34 | 1.44 ± 0.28 | 1.51 ± 0.34 | 1.52 ± 0.31 | 1.4 ± 0.3 | 1.38 ± 0.23 | 1.31 ± 0.19
H0YEN5 and related entries (UniProt P15880) | 0.979 ± 0.063 | 1.01 ± 0.1 | 0.965 ± 0.14 | 0.936 ± 0.19 | 0.848 ± 0.21 | 0.836 ± 0.21 | 0.738 ± 0.17 | 0.774 ± 0.2
J3KP27 and related entries (UniProt Q9Y296) | 0.979 ± 0.05 | 0.975 ± 0.081 | 0.94 ± 0.06 | 0.932 ± 0.065 | 0.92 ± 0.052 | 0.895 ± 0.081 | 0.92 ± 0.011 | 0.884 ± 0.029
K7ELQ9 and related entries (UniProt Q6UW68) | 1.05 ± 0.099 | 1 ± 0.21 | 0.936 ± 0.07 | 0.896 ± 0.16 | 0.9 ± 0.11 | 0.888 ± 0.078 | 0.904 ± 0.19 | 0.876 ± 0.13
G5E9L0 and related entries (UniProt Q8N6H7) | 0.96 ± 0.099 | 0.923 ± 0.069 | 0.96 ± 0.097 | 0.89 ± 0.091 | 0.919 ± 0.12 | 0.89 ± 0.094 | 0.935 ± 0.097 | 0.897 ± 0.091
H0Y360 and related entries (UniProt Q01433) | 1.04 ± 0.035 | 1.03 ± 0.029 | 0.929 ± 0.024 | 0.94 ± 0.061 | 0.932 ± 0.046 | 0.929 ± 0.046 | 0.901 ± 0.024 | 0.886 ± 0.048
H3BSM7 and related entries (UniProt Q96GQ5) | 1.05 ± 0.046 | 1.043 ± 0.0077 | 0.977 ± 0.029 | 0.986 ± 0.057 | 0.996 ± 0.061 | 0.984 ± 0.076 | 0.97 ± 0.017 | 0.924 ± 0.075
J3QTA6 and related entries (UniProt Q9BRQ6) | 1 ± 0.084 | 1.01 ± 0.083 | 1.12 ± 0.14 | 1.15 ± 0.054 | 1.15 ± 0.09 | 1.16 ± 0.062 | 1.22 ± 0.12 | 1.26 ± 0.21
K7ELC7 and related entries (UniProt P61353) | 1 ± 0.026 | 1 ± 0.03 | 1.01 ± 0.073 | 0.959 ± 0.089 | 0.864 ± 0.074 | 0.843 ± 0.11 | 0.795 ± 0.06 | 0.841 ± 0.082
H0YBW3 and related entries (UniProt Q9NVR2) | 1.1 ± 0.049 | 0.938 ± 0.17 | 1.19 ± 0.22 | 1.04 ± 0.17 | 1.3 ± 0.32 | 1.04 ± 0.07 | 1.27 ± 0.21 | 0.996 ± 0.12
H1UBN3 and related entries (UniProt O95067+H1UBN3) | 0.998 ± 0.059 | 0.952 ± 0.07 | 0.975 ± 0.024 | 1 ± 0.06 | 1.02 ± 0.025 | 1.02 ± 0.031 | 1.02 ± 0.013 | 1.05 ± 0.051
I3L1P8 and related entries (UniProt Q02978) | 1.02 ± 0.021 | 0.999 ± 0.026 | 0.942 ± 0.012 | 1.01 ± 0.12 | 0.994 ± 0.074 | 0.983 ± 0.072 | 0.945 ± 0.034 | 0.976 ± 0.028
H7BXF4 and related entries (UniProt Q9NXE4) | 0.965 ± 0.041 | 1.01 ± 0.1 | 0.932 ± 0.013 | 0.981 ± 0.095 | 0.992 ± 0.03 | 0.929 ± 0.056 | 0.897 ± 0.083 | 0.885 ± 0.087
H7BXI1 and related entries (UniProt A0FGR8) | 0.984 ± 0.013 | 1.01 ± 0.045 | 0.942 ± 0.012 | 0.945 ± 0.037 | 0.934 ± 0.014 | 0.944 ± 0.025 | 0.9154 ± 0.0069 | 0.894 ± 0.034
K7ER95 and related entries (UniProt Q92918) | 1.06 ± 0.028 | 1.09 ± 0.031 | 1 ± 0.023 | 1.03 ± 0.029 | 0.991 ± 0.011 | 0.983 ± 0.038 | 0.984 ± 0.039 | 0.945 ± 0.065
H0YCG1 and related entries (UniProt Q13435) | 0.998 ± 0.046 | 1.05 ± 0.034 | 1.11 ± 0.046 | 1.08 ± 0.058 | 1.12 ± 0.087 | 1.08 ± 0.14 | 1.22 ± 0.12 | 1.18 ± 0.15
J3QQV6 and related entries (UniProt Q9NVS9) | 0.932 ± 0.045 | 0.913 ± 0.054 | 0.941 ± 0.055 | 0.892 ± 0.06 | 0.895 ± 0.065 | 0.889 ± 0.069 | 0.873 ± 0.07 | 0.884 ± 0.072
H0Y8W3 and related entries (UniProt O43566) | 0.964 ± 0.04 | 0.975 ± 0.016 | 0.995 ± 0.014 | 0.991 ± 0.041 | 0.967 ± 0.036 | 0.971 ± 0.053 | 0.961 ± 0.022 | 0.963 ± 0.034
J3KPP0 and related entries (UniProt Q9Y6G3) | 1.07 ± 0.12 | 1.07 ± 0.13 | 1.24 ± 0.24 | 1.15 ± 0.11 | 1.23 ± 0.12 | 1.2 ± 0.16 | 1.17 ± 0.2 | 1.23 ± 0.28
J3KQJ1 and related entries (UniProt Q8NBJ7) | 1 ± 0.067 | 0.97 ± 0.077 | 0.97 ± 0.081 | 0.921 ± 0.086 | 0.913 ± 0.066 | 0.939 ± 0.1 | 0.923 ± 0.069 | 0.878 ± 0.051
H0Y7L2 and related entries (UniProt Q96N67) | 1.05 ± 0.064 | 1.09 ± 0.12 | 1.06 ± 0.086 | 1.12 ± 0.11 | 1.14 ± 0.15 | 1.15 ± 0.15 | 1.11 ± 0.12 | 1.07 ± 0.076
H3BPZ1 and related entries (UniProt Q9P035) | 1.01 ± 0.025 | 1.04 ± 0.11 | 0.872 ± 0.052 | 0.904 ± 0.092 | 0.926 ± 0.082 | 0.96 ± 0.021 | 0.889 ± 0.083 | 0.846 ± 0.16

Limited to NP40-soluble protein abundance (concentration: 2mM), for some of the entries so far:
Target,NP40-soluble protein abundance (concentration: 2mM)
H0YEN5 and related entries (UniProt P15880),0.936 ± 0.19
J3QQV6 and related entries (UniProt Q9NVS9),0.892 ± 0.06

Source: the supplement of paper PMC6411743
